Publication doi:10.1101/2022.07.24.501280
Results are given in words; binding and its absence hold for the method and conditions named. Binding seen in cells or lysates may run through a third protein. Here binding means that the protein was enriched with, or labelled near, the bait; the list need not be complete. Tags and fused reporters may be left off the sequences shown.

Biological target: T1, HA tagged wild type PERK (PKR-like Endoplasmic Reticulum Kinase) (UniProt Q9Z2B5)
T1 sequence: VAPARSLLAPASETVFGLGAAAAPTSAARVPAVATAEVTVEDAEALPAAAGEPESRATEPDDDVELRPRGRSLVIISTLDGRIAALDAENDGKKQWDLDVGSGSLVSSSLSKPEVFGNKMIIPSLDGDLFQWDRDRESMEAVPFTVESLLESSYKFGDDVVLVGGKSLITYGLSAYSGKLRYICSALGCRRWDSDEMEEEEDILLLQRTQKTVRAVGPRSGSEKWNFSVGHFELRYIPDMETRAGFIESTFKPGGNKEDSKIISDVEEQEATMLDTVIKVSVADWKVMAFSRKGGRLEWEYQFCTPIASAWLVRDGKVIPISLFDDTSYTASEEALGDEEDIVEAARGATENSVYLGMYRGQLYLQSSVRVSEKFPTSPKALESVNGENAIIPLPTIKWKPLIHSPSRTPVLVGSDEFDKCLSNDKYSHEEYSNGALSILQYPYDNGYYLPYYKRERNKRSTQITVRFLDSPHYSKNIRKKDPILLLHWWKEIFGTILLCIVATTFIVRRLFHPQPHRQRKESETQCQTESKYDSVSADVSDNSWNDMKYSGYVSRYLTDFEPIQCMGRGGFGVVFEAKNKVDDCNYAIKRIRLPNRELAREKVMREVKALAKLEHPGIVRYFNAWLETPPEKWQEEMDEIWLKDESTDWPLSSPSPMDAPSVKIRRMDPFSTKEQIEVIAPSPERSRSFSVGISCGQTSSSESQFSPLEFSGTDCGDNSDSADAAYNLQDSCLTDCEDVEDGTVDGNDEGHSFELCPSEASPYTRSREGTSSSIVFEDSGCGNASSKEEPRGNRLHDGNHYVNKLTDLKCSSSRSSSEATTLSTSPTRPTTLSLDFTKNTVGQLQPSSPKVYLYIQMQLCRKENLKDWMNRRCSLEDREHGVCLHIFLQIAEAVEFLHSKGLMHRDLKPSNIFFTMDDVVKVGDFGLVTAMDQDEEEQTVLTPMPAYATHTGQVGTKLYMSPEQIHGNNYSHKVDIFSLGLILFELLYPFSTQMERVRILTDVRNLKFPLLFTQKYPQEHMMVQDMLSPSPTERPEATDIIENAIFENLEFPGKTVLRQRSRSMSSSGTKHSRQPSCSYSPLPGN
Experiment: affinity purification with mass spectrometry

eIF2α (in HEK 293 cells) (from UniProt P05198 1-315)
binding: binds
